Measurements reported in PubChem BioAssay AID1224830 (NIAID, 2016).

- Purpose: 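Regulators of TLR4 signalling towards TNF-alpha in macrophage-like cells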 (primary screen)
- System: human THP-1 monocytic leukaemia cells, TNF dual-luciferase reporter clone, PMA-differentiated to macrophage-like cells
- Reagent: siRNA pool against human genes, 50 nM
- Time to read-out: LPS for 4 h, given about 3 days after siRNA transfection
- Conditions: bacterial LPS (TLR4 ligand), 10 ng/ml
- Read-out: 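Ratio of firefly to renilla light, scaled to the plate median and expressed as a robust z-score per replicate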
- Direction: TNF reporter robust z-score: higher = stronger TNF reporter response to LPS
- Hit rule: 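Each well counts as active if its z-score is over 2.8 or under -1.5; controls are left without a call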
In all, the deposit lists about 18,000 reagents; below is a random part of them. About 2,900 of them (16%) count as active. 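Calls are made per well; low scores hint the gene aids the LPS response, high scores that it dampens it.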 Repeated entries: four replicate wells of each siRNA pool.

Which result is listed for OR2T10 (GeneID 127069) [SID315461740]?
TNF reporter robust z-score: -0.94; Outcome: inactive

What did the screen give for OR2T10 (GeneID 127069) [SID315461740]?
TNF reporter robust z-score: 0.05; Outcome: inactive

With OR2T10 (GeneID 127069) [SID315461740], how do the results read?
TNF reporter robust z-score: -0.19; Outcome: inactive

What is on record for OR2T10 (GeneID 127069) [SID315461740]?
TNF reporter robust z-score: 0.01; Outcome: inactive

Which result is listed for ASAH2 (GeneID 56624) [SID315458092]?
TNF reporter robust z-score: 0.12; Outcome: inactive

For ASAH2 (GeneID 56624) [SID315458092], what was measured?
TNF reporter robust z-score: -0.31; Outcome: inactive

For ASAH2 (GeneID 56624) [SID315458092], how do the results read?
TNF reporter robust z-score: -0.94; Outcome: inactive

How did the screen score ASAH2 (GeneID 56624) [SID315458092]?
TNF reporter robust z-score: 0.33; Outcome: inactive

With NECTIN3 (GeneID 25945) [SID315455571], how do the results read?
TNF reporter robust z-score: 0.59; Outcome: inactive

With NECTIN3 (GeneID 25945) [SID315455571], how do the results read?
TNF reporter robust z-score: -0.45; Outcome: inactive

For NECTIN3 (GeneID 25945) [SID315455571], how do the results read?
TNF reporter robust z-score: 0.08; Outcome: inactive

What did the screen give for NECTIN3 (GeneID 25945) [SID315455571]?
TNF reporter robust z-score: 0.53; Outcome: inactive

Which result is listed for ZNF804B (GeneID 219578) [SID315463181]?
TNF reporter robust z-score: -0.33; Outcome: inactive

What did the screen give for ZNF804B (GeneID 219578) [SID315463181]?
TNF reporter robust z-score: 0.8; Outcome: inactive

For ZNF804B (GeneID 219578) [SID315463181], what does the deposit list?
TNF reporter robust z-score: -0.19; Outcome: inactive

With ZNF804B (GeneID 219578) [SID315463181], what does the deposit list?
TNF reporter robust z-score: 1.64; Outcome: inactive

Which result is listed for KCNQ3 (GeneID 3786) [SID315449639]?
TNF reporter robust z-score: 0.02; Outcome: inactive

How did the screen score KCNQ3 (GeneID 3786) [SID315449639]?
TNF reporter robust z-score: 1.21; Outcome: inactive

For KCNQ3 (GeneID 3786) [SID315449639], what was measured?
TNF reporter robust z-score: -0.89; Outcome: inactive

For KCNQ3 (GeneID 3786) [SID315449639], what does the deposit list?
TNF reporter robust z-score: 0.94; Outcome: inactive

For ORC3 (GeneID 23595) [SID315455356], how do the results read?
TNF reporter robust z-score: -0.29; Outcome: inactive

Which result is listed for ORC3 (GeneID 23595) [SID315455356]?
TNF reporter robust z-score: -0.6; Outcome: inactive

How did the screen score ORC3 (GeneID 23595) [SID315455356]?
TNF reporter robust z-score: 0.07; Outcome: inactive

With ORC3 (GeneID 23595) [SID315455356], what does the deposit list?
TNF reporter robust z-score: -0.13; Outcome: inactive

With CNRIP1 (GeneID 25927) [SID315455559], how do the results read?
TNF reporter robust z-score: -0.34; Outcome: inactive

For CNRIP1 (GeneID 25927) [SID315455559], what does the deposit list?
TNF reporter robust z-score: 0.05; Outcome: inactive

How did the screen score CNRIP1 (GeneID 25927) [SID315455559]?
TNF reporter robust z-score: -0.4; Outcome: inactive

What did the screen give for CNRIP1 (GeneID 25927) [SID315455559]?
TNF reporter robust z-score: -0.62; Outcome: inactive

Which result is listed for ZNF436 (GeneID 80818) [SID315459816]?
TNF reporter robust z-score: -0.29; Outcome: inactive

Which result is listed for ZNF436 (GeneID 80818) [SID315459816]?
TNF reporter robust z-score: 3.01; Outcome: active

With ZNF436 (GeneID 80818) [SID315459816], what does the deposit list?
TNF reporter robust z-score: 1.42; Outcome: inactive

For ZNF436 (GeneID 80818) [SID315459816], what was measured?
TNF reporter robust z-score: 3.93; Outcome: active

Ordered by “TNF reporter robust z-score” (highest first): 7 of the entries above
ZNF804B (GeneID 219578) [SID315463181] | TNF reporter robust z-score = 0.8; Outcome = inactive
NECTIN3 (GeneID 25945) [SID315455571] | TNF reporter robust z-score = 0.59; Outcome = inactive
NECTIN3 (GeneID 25945) [SID315455571] | TNF reporter robust z-score = 0.53; Outcome = inactive
ASAH2 (GeneID 56624) [SID315458092] | TNF reporter robust z-score = 0.33; Outcome = inactive
NECTIN3 (GeneID 25945) [SID315455571] | TNF reporter robust z-score = 0.08; Outcome = inactive
ZNF804B (GeneID 219578) [SID315463181] | TNF reporter robust z-score = -0.33; Outcome = inactive
NECTIN3 (GeneID 25945) [SID315455571] | TNF reporter robust z-score = -0.45; Outcome = inactive

Continued.
For LIPE (GeneID 3991) [SID315449775], what does the deposit list?
TNF reporter robust z-score: 2.03; Outcome: inactive

With LIPE (GeneID 3991) [SID315449775], what does the deposit list?
TNF reporter robust z-score: 2.39; Outcome: inactive

What did the screen give for LIPE (GeneID 3991) [SID315449775]?
TNF reporter robust z-score: 1.35; Outcome: inactive

With LIPE (GeneID 3991) [SID315449775], what was measured?
TNF reporter robust z-score: 2.45; Outcome: inactive

How did the screen score CCL24 (GeneID 6369) [SID315451346]?
TNF reporter robust z-score: -0.27; Outcome: inactive

With CCL24 (GeneID 6369) [SID315451346], what was measured?
TNF reporter robust z-score: 0.91; Outcome: inactive

How did the screen score CCL24 (GeneID 6369) [SID315451346]?
TNF reporter robust z-score: 0.18; Outcome: inactive

How did the screen score CCL24 (GeneID 6369) [SID315451346]?
TNF reporter robust z-score: -0.33; Outcome: inactive

With SLITRK6 (GeneID 84189) [SID315460232], how do the results read?
TNF reporter robust z-score: -0.42; Outcome: inactive

For SLITRK6 (GeneID 84189) [SID315460232], how do the results read?
TNF reporter robust z-score: 0.33; Outcome: inactive

Which result is listed for SLITRK6 (GeneID 84189) [SID315460232]?
TNF reporter robust z-score: 0.15; Outcome: inactive

What did the screen give for SLITRK6 (GeneID 84189) [SID315460232]?
TNF reporter robust z-score: 1.04; Outcome: inactive

With HLA-L (GeneID 3139) [SID315464930], what does the deposit list?
TNF reporter robust z-score: -0.09; Outcome: inactive

With HLA-L (GeneID 3139) [SID315464930], what was measured?
TNF reporter robust z-score: -0.56; Outcome: inactive

For HLA-L (GeneID 3139) [SID315464930], what was measured?
TNF reporter robust z-score: 0.35; Outcome: inactive

Which result is listed for HLA-L (GeneID 3139) [SID315464930]?
TNF reporter robust z-score: -0.34; Outcome: inactive

What did the screen give for JOSD2 (GeneID 126119) [SID315461683]?
TNF reporter robust z-score: 2.01; Outcome: inactive

With JOSD2 (GeneID 126119) [SID315461683], what was measured?
TNF reporter robust z-score: 1.87; Outcome: inactive

For JOSD2 (GeneID 126119) [SID315461683], what was measured?
TNF reporter robust z-score: 0.5; Outcome: inactive

Which result is listed for JOSD2 (GeneID 126119) [SID315461683]?
TNF reporter robust z-score: 2.71; Outcome: inactive

How did the screen score ANTXR1 (GeneID 84168) [SID315460221]?
TNF reporter robust z-score: -0.29; Outcome: inactive

With ANTXR1 (GeneID 84168) [SID315460221], how do the results read?
TNF reporter robust z-score: 0.98; Outcome: inactive

How did the screen score ANTXR1 (GeneID 84168) [SID315460221]?
TNF reporter robust z-score: 0.48; Outcome: inactive

Which result is listed for ANTXR1 (GeneID 84168) [SID315460221]?
TNF reporter robust z-score: -0.45; Outcome: inactive

Which result is listed for RIOX1 (GeneID 79697) [SID315459392]?
TNF reporter robust z-score: 1.32; Outcome: inactive

For RIOX1 (GeneID 79697) [SID315459392], what was measured?
TNF reporter robust z-score: -0.08; Outcome: inactive

For RIOX1 (GeneID 79697) [SID315459392], what was measured?
TNF reporter robust z-score: 0.68; Outcome: inactive

For RIOX1 (GeneID 79697) [SID315459392], what does the deposit list?
TNF reporter robust z-score: 0.62; Outcome: inactive
